Assay results published in US20140038920A1, “TFEB PHOSPHORYLATION INHIBITORS AND USES THEREOF” (FONDAZIONE TELETHON, priority 2011, published 2014).
Counter-ions that a name gives are not always drawn. Like-named read-outs stand apart in the source and are kept apart here.

Tested on: TFEB
Experiment: High content TFEB-GFP nuclear translocation assay
Format: cell-based
Conditions: read-out: Average EC50
Description: Immunoblotting of protein extracts isolated from HeLa cells treated overnight, as indicated. Membranes were probed with antibodies for p-T202/Y204-ERK1/2, ERK1/2, p-T389-S6K, and S6K to measure ERK and mTORC1 activities. […] FLAG immunoblotting of cytosolic and nuclear fractions isolated from TFEB-3×FLAG HeLa cells cultured in amino acid-free media and subsequently stimulated as indicated for at least 3 h. Correct subcellular fractionation was verified with H3 and tubulin antibodies. […] The EC50 for each compound was calculated using Prism software (see Materials and Methods for details). […] TFEB localization was detected with a FLAG antibody, whereas tubulin and H3 were used as controls for the cytosolic and nuclear fraction, respectively; levels of S6K phosphorylation were used to test RagC and RagD knockdown efficiency.
After 3 hours at 37° C. in RPMI medium cells were washed, fixed, and stained with DAPI. […] The script calculates the ratio value resulting from the average intensity of nuclear TFEB-GFP fluorescence divided by the average of the cytosolic intensity of TFEB-GFP fluorescence. […] The EC50 for each compound was calculated using non-linear regression fitting (Prism software). […]

Row | EC50 (mobilization of cytosolic TFEB to the nucleus, TFEB-GFP HeLa cells, 3 h at 37° C. in RPMI, ten concentrations 50 μM to 2.54 nM, 4 runs) [µM] | SMILES | EC50 (Homo sapiens, HeLa, 3 h) [µM]
1 |  | C[S+]([O-])c1ccc(-c2nc(-c3ccc(F)cc3)c(-c3ccncc3)[nH]2)cc1 (centres unmarked) [SB203580] | 7 to 15
2 | < 7 | Cc1ccc(NC(=O)c2ccc(CN3CCN(C)CC3)cc2)cc1Nc1nccc(-c2cccnc2)n1 [Imatinib Mesylate STI571, Imatinib Mesylate] | 
